# Reference: PubChem BioAssay AID1224830 (NIAID, 2016)
# Screen: 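Regulators of TLR4 signalling towards TNF-alpha in macrophage-like cells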 (primary screen)
# Cells: human THP-1 monocytic leukaemia cells, TNF dual-luciferase reporter clone, PMA-differentiated to macrophage-like cells
# Knock-down reagent: siRNA pool against human genes, 50 nM
# Time to read-out: LPS for 4 h, given about 3 days after siRNA transfection
# Challenge: bacterial LPS (TLR4 ligand), 10 ng/ml
# Measurement: 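Ratio of firefly to renilla light, scaled to the plate median and expressed as a robust z-score per replicate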
# Direction: TNF reporter robust z-score: higher = stronger TNF reporter response to LPS
# Call rule: 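Each well counts as active if its z-score is over 2.8 or under -1.5; controls are left without a call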
# In all, the deposit lists about 18,000 reagents; below is a part drawn at random. In the full data, about 2,900 (16%) were called active. 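Calls are made per well; low scores hint the gene aids the LPS response, high scores that it dampens it.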 Repeated entries: four replicate wells of each siRNA pool. Reagent sequences are not shown.
gene,TNF reporter robust z-score,activity call
PCID2 (PCI domain containing 2),1.74,inactive
PCID2 (PCI domain containing 2),-0.01,inactive
PCID2 (PCI domain containing 2),0,inactive
PCID2 (PCI domain containing 2),0.08,inactive
RAB5IF (RAB5 interacting factor),-0.33,inactive
RAB5IF (RAB5 interacting factor),-0.97,inactive
RAB5IF (RAB5 interacting factor),-0.39,inactive
RAB5IF (RAB5 interacting factor),-0.48,inactive
NUSAP1 (nucleolar and spindle associated protein 1),-1.26,inactive
NUSAP1 (nucleolar and spindle associated protein 1),-0.63,inactive
NUSAP1 (nucleolar and spindle associated protein 1),-0.52,inactive
NUSAP1 (nucleolar and spindle associated protein 1),-0.58,inactive
TMEM128 (transmembrane protein 128),-1.67,active
TMEM128 (transmembrane protein 128),-0.25,inactive
TMEM128 (transmembrane protein 128),-1.1,inactive
TMEM128 (transmembrane protein 128),0.17,inactive
IDH2 (isocitrate dehydrogenase (NADP(+)) 2),-0.01,inactive
IDH2 (isocitrate dehydrogenase (NADP(+)) 2),-0.31,inactive
IDH2 (isocitrate dehydrogenase (NADP(+)) 2),-0.64,inactive
IDH2 (isocitrate dehydrogenase (NADP(+)) 2),-0.5,inactive
ANK3 (ankyrin 3),-0.41,inactive
ANK3 (ankyrin 3),0.55,inactive
ANK3 (ankyrin 3),0.43,inactive
ANK3 (ankyrin 3),2.32,inactive
POLDIP3 (DNA polymerase delta interacting protein 3),-0.58,inactive
POLDIP3 (DNA polymerase delta interacting protein 3),-0.84,inactive
POLDIP3 (DNA polymerase delta interacting protein 3),-1.07,inactive
POLDIP3 (DNA polymerase delta interacting protein 3),-0.53,inactive
CRCP (CGRP receptor component),0.2,inactive
CRCP (CGRP receptor component),0.71,inactive
CRCP (CGRP receptor component),0.03,inactive
TPBG (trophoblast glycoprotein),0.38,inactive
TPBG (trophoblast glycoprotein),0,inactive
TPBG (trophoblast glycoprotein),-0.86,inactive
TPBG (trophoblast glycoprotein),0.04,inactive
C2orf15 (chromosome 2 open reading frame 15),-1.25,inactive
C2orf15 (chromosome 2 open reading frame 15),0.03,inactive
C2orf15 (chromosome 2 open reading frame 15),-0.35,inactive
C2orf15 (chromosome 2 open reading frame 15),-0.77,inactive
SYNM (synemin),-1.03,inactive
SYNM (synemin),-0.53,inactive
SYNM (synemin),-1.25,inactive
SYNM (synemin),-0.91,inactive
E4F1 (E4F transcription factor 1),-1.97,active
E4F1 (E4F transcription factor 1),-1.57,active
E4F1 (E4F transcription factor 1),-1.77,active
E4F1 (E4F transcription factor 1),-1.26,inactive
ZEB2 (zinc finger E-box binding homeobox 2),-0.65,inactive
ZEB2 (zinc finger E-box binding homeobox 2),-0.19,inactive
ZEB2 (zinc finger E-box binding homeobox 2),-0.43,inactive
ZEB2 (zinc finger E-box binding homeobox 2),-0.91,inactive
ZNF229 (zinc finger protein 229),-0.18,inactive
ZNF229 (zinc finger protein 229),0.86,inactive
ZNF229 (zinc finger protein 229),1.54,inactive
ZNF229 (zinc finger protein 229),0.03,inactive
"POLR2F (RNA polymerase II, I and III subunit F)",-1.86,active
"POLR2F (RNA polymerase II, I and III subunit F)",-1.79,active
"POLR2F (RNA polymerase II, I and III subunit F)",-1.76,active
"POLR2F (RNA polymerase II, I and III subunit F)",-1.23,inactive
TRIM25 (tripartite motif containing 25),-1.66,active
TRIM25 (tripartite motif containing 25),-0.48,inactive
TRIM25 (tripartite motif containing 25),-0.45,inactive
TRIM25 (tripartite motif containing 25),1.45,inactive
SH3PXD2B (SH3 and PX domains 2B),-0.56,inactive
SH3PXD2B (SH3 and PX domains 2B),0.44,inactive
SH3PXD2B (SH3 and PX domains 2B),-0.38,inactive
SH3PXD2B (SH3 and PX domains 2B),-0.19,inactive
FAM24A (family with sequence similarity 24 member A),-0.85,inactive
FAM24A (family with sequence similarity 24 member A),0.27,inactive
FAM24A (family with sequence similarity 24 member A),-0.02,inactive
FAM24A (family with sequence similarity 24 member A),0.5,inactive
SLC35E1,0.15,inactive
SLC35E1,0.04,inactive
SLC35E1,0.01,inactive
SLC35E1,0.28,inactive
TRIOBP (TRIO and F-actin binding protein),0.74,inactive
TRIOBP (TRIO and F-actin binding protein),0.81,inactive
TRIOBP (TRIO and F-actin binding protein),0.75,inactive
TRIOBP (TRIO and F-actin binding protein),0.22,inactive
KRT76 (keratin 76),0.32,inactive
KRT76 (keratin 76),-0.13,inactive
KRT76 (keratin 76),0.49,inactive
KRT76 (keratin 76),-0.44,inactive

Entries above marked active, once more:
gene,TNF reporter robust z-score,activity call
TMEM128 (transmembrane protein 128),-1.67,active
E4F1 (E4F transcription factor 1),-1.97,active
E4F1 (E4F transcription factor 1),-1.57,active
E4F1 (E4F transcription factor 1),-1.77,active
"POLR2F (RNA polymerase II, I and III subunit F)",-1.86,active
"POLR2F (RNA polymerase II, I and III subunit F)",-1.79,active
"POLR2F (RNA polymerase II, I and III subunit F)",-1.76,active
TRIM25 (tripartite motif containing 25),-1.66,active

Next entries follow:
gene,TNF reporter robust z-score,activity call
PPP1R12A (protein phosphatase 1 regulatory subunit 12A),0.41,inactive
PPP1R12A (protein phosphatase 1 regulatory subunit 12A),1.73,inactive
PPP1R12A (protein phosphatase 1 regulatory subunit 12A),-0.9,inactive
PPP1R12A (protein phosphatase 1 regulatory subunit 12A),1.34,inactive
PGD (phosphogluconate dehydrogenase),-0.99,inactive
PGD (phosphogluconate dehydrogenase),-1.2,inactive
PGD (phosphogluconate dehydrogenase),-1.08,inactive
PGD (phosphogluconate dehydrogenase),-0.67,inactive
SELENBP1 (selenium binding protein 1),0.28,inactive
SELENBP1 (selenium binding protein 1),0.74,inactive
SELENBP1 (selenium binding protein 1),0.73,inactive
SELENBP1 (selenium binding protein 1),0.87,inactive
ETV2 (ETS variant transcription factor 2),0.62,inactive
ETV2 (ETS variant transcription factor 2),0.17,inactive
ETV2 (ETS variant transcription factor 2),-1.37,inactive
ETV2 (ETS variant transcription factor 2),-0.98,inactive
ACTL8 (actin like 8),-0.94,inactive
ACTL8 (actin like 8),1.45,inactive
ACTL8 (actin like 8),0.38,inactive
ACTL8 (actin like 8),0.19,inactive
GNAI1 (G protein subunit alpha i1),-0.47,inactive
GNAI1 (G protein subunit alpha i1),-1.15,inactive
GNAI1 (G protein subunit alpha i1),-0.3,inactive
GNAI1 (G protein subunit alpha i1),0.62,inactive
HACD1 (3-hydroxyacyl-CoA dehydratase 1),-0.21,inactive
HACD1 (3-hydroxyacyl-CoA dehydratase 1),0.21,inactive
HACD1 (3-hydroxyacyl-CoA dehydratase 1),1.14,inactive
HACD1 (3-hydroxyacyl-CoA dehydratase 1),1.52,inactive
ITPA (inosine triphosphatase),-1.37,inactive
ITPA (inosine triphosphatase),-1.22,inactive
ITPA (inosine triphosphatase),-1.91,active
ITPA (inosine triphosphatase),-1.46,inactive
GBA3 (glucosylceramidase beta 3 (gene/pseudogene)),0.05,inactive
GBA3 (glucosylceramidase beta 3 (gene/pseudogene)),-0.33,inactive
GBA3 (glucosylceramidase beta 3 (gene/pseudogene)),-0.08,inactive
GBA3 (glucosylceramidase beta 3 (gene/pseudogene)),0.16,inactive
MUS81 (MUS81 structure-specific endonuclease subunit),0.27,inactive
MUS81 (MUS81 structure-specific endonuclease subunit),0.32,inactive
MUS81 (MUS81 structure-specific endonuclease subunit),0.76,inactive
MUS81 (MUS81 structure-specific endonuclease subunit),1.09,inactive
ZKSCAN4 (zinc finger with KRAB and SCAN domains 4),0.66,inactive
ZKSCAN4 (zinc finger with KRAB and SCAN domains 4),0.11,inactive
ZKSCAN4 (zinc finger with KRAB and SCAN domains 4),0.13,inactive
ZKSCAN4 (zinc finger with KRAB and SCAN domains 4),0.35,inactive
PDPN (podoplanin),0.33,inactive
PDPN (podoplanin),-0.56,inactive
PDPN (podoplanin),0.62,inactive
PDPN (podoplanin),1.74,inactive
STAM2 (signal transducing adaptor molecule 2),-0.35,inactive
STAM2 (signal transducing adaptor molecule 2),0.19,inactive
STAM2 (signal transducing adaptor molecule 2),-0.03,inactive
STAM2 (signal transducing adaptor molecule 2),-0.11,inactive
TSSK4 (testis specific serine kinase 4),-0.88,inactive
TSSK4 (testis specific serine kinase 4),-0.44,inactive
TSSK4 (testis specific serine kinase 4),-1.17,inactive
TSSK4 (testis specific serine kinase 4),1.12,inactive
DEFB135 (defensin beta 135),-0.37,inactive
DEFB135 (defensin beta 135),0.03,inactive
DEFB135 (defensin beta 135),-0.23,inactive
DEFB135 (defensin beta 135),-1.12,inactive
